PubChem BioAssay AID686938 – Drosophila RNAi Screening Center – 2013

Test: 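Fly genes required for calcium entry once internal stores are emptied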 (primary screen)
System: Drosophila S2R+ cells
Reagents: long dsRNA against Drosophila genes, about 0.25 µg dsRNA per well, roughly 10,000 cells
Time to read-out: 5 days of knock-down before the calcium assay
Treatment: thapsigargin (SERCA pump blocker) to empty calcium stores; entry signal taken 4 min after adding it
Read-out: 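Per-well fluo-4 fluorescence in two replicates, unnormalised, measured in resting cells and 4 min after store depletion by the SERCA blocker thapsigargin; ratio of the two present in few wells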
Direction: calcium entry signal: higher = stronger calcium signal after store depletion; entry to resting ratio: higher = more calcium entry relative to resting level; resting calcium signal: higher = higher resting calcium signal
Active means: 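Hit if the duplicate-averaged plate z-score for entry over resting signal is under −3; wells with weak total dye signal (Fmax z < −2) or more than 5 off-targets removed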
Calls: active = strongly reduced calcium entry; inactive = no strong reduction
In all, the deposit lists about 23,000 reagents; below is a random part of those that have a named target and a result. In the full data, 75 (0.33%) got an active call. 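Raw plate signals without normalisation; calls rest on plate z-scores that were not deposited; ratio present for only 364 wells.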 Names joined by + are all predicted targets of the reagent. Reagent sequences are not shown. Not given: the dose of the treatment.

gene	DRSC id	calcium entry signal, replicate 1 (fluorescence units)	calcium entry signal, replicate 2 (fluorescence units)	entry to resting ratio	resting calcium signal, replicate 1 (fluorescence units)	resting calcium signal, replicate 2 (fluorescence units)	outcome
vers	DRSC10715	5.06e7	3.59e7		3.70e7	1.87e7	inactive
vers	DRSC23232	4.15e7	2.97e7		2.43e7	1.40e7	inactive
FBXO11	DRSC16497	3.39e7	4.75e7		1.55e7	2.03e7	inactive
Mpcp2	DRSC11226	5.37e7	6.49e7		2.30e7	2.59e7	inactive
Uch-L5R	DRSC19825	3.86e7	5.58e7		1.94e7	2.69e7	inactive
Drl-2	DRSC05393	5.31e7	4.62e7		2.58e7	2.28e7	inactive
Drl-2	DRSC06155	2.08e7	3.02e7		1.04e7	1.36e7	inactive
Drl-2	DRSC06858	2.09e7	3.53e7		9.93e6	1.54e7	inactive
CG32023	DRSC08946	3.61e7	3.81e7		1.77e7	1.59e7	inactive
botv	DRSC05949	2.88e7	2.12e7		1.22e7	1.07e7	inactive
Vajk2	DRSC02540	5.18e7	3.66e7		2.27e7	1.62e7	inactive
TORIP	DRSC10104	3.18e7	3.91e7		1.67e7	2.66e7	inactive
TrpA1	DRSC10544	3.37e7	4.39e7		1.65e7	2.10e7	inactive
CG10793	DRSC17760	3.79e7	3.69e7	2.2	1.73e7	1.69e7	inactive
CG32409	DRSC08780	4.17e7	4.95e7		2.13e7	2.30e7	inactive
RpL28 + snoRNA:Or-CD12	DRSC08293	1.29e7	1.26e7		8.71e6	9.06e6	inactive
CG13801	DRSC08335	3.47e7	4.17e7		1.77e7	1.89e7	inactive
CG31126	DRSC14623	2.84e7	4.22e7		1.73e7	1.81e7	inactive
CysRS	DRSC05948	3.34e7	5.98e7		1.54e7	2.69e7	inactive
ppan	DRSC17030	2.21e7	2.73e7		1.45e7	6.34e7	inactive
mus201 + Chrac-14	DRSC03568	3.33e7	4.34e7		1.68e7	1.86e7	inactive
mus201 + Chrac-14	DRSC03575	3.10e7	4.20e7		1.63e7	1.93e7	inactive
CG12680	DRSC17871	3.37e7	3.91e7		1.71e7	1.80e7	inactive
Vm32E	DRSC03474	3.71e7	4.83e7		2.10e7	2.53e7	inactive
RNASEK	DRSC21641	2.92e7	3.87e7		1.83e7	2.57e7	active
ema	DRSC14536	2.85e7	6.23e7		1.56e7	5.38e7	inactive
CG30430	DRSC22260	1.93e7	3.22e7		9.61e6	1.63e7	inactive
gro	DRSC16962	4.54e7	5.26e7		2.01e7	2.14e7	inactive
bma	DRSC09896	2.76e7	4.19e7		1.44e7	1.73e7	inactive
bma	DRSC10164	2.91e7	4.34e7		1.58e7	2.07e7	inactive
Orc4	DRSC04634	4.08e7			2.25e7		inactive
CG6769	DRSC20006	4.29e7	5.42e7		1.98e7	2.27e7	inactive
Trm7-32	DRSC15741	3.84e7	3.20e7		1.70e7	1.44e7	inactive
Prosalpha5	DRSC07514	1.14e7	1.21e7		8.13e6	7.52e6	inactive
CG13386	DRSC02260	3.14e7	4.07e7		1.61e7	1.88e7	inactive
CG31140	DRSC13649	4.30e7	2.99e7		1.84e7	1.51e7	inactive
CG31140	DRSC14603	2.92e7	2.74e7		1.41e7	1.31e7	inactive
CG31140	DRSC15904	5.18e7	6.44e7		2.42e7	2.61e7	inactive
CG31249	DRSC16248	2.16e7	3.02e7		3.02e7	1.34e7	inactive
yellow-d	DRSC04589	3.14e7	3.35e7		1.68e7	1.50e7	inactive
CG3847	DRSC17444	2.70e7	4.47e7		1.29e7	2.18e7	inactive
CG3847	DRSC18327	3.71e7	3.69e7		2.32e7	2.10e7	inactive
Prx6c	DRSC06080	4.38e7	4.42e7		1.95e7	1.96e7	inactive

9 consecutive reagents already listed, for reference:
gene	DRSC id	calcium entry signal, replicate 1 (fluorescence units)	calcium entry signal, replicate 2 (fluorescence units)	entry to resting ratio	resting calcium signal, replicate 1 (fluorescence units)	resting calcium signal, replicate 2 (fluorescence units)	outcome
CG13386	DRSC02260	3.14e7	4.07e7		1.61e7	1.88e7	inactive
CG31140	DRSC13649	4.30e7	2.99e7		1.84e7	1.51e7	inactive
CG31140	DRSC14603	2.92e7	2.74e7		1.41e7	1.31e7	inactive
CG31140	DRSC15904	5.18e7	6.44e7		2.42e7	2.61e7	inactive
CG31249	DRSC16248	2.16e7	3.02e7		3.02e7	1.34e7	inactive
yellow-d	DRSC04589	3.14e7	3.35e7		1.68e7	1.50e7	inactive
CG3847	DRSC17444	2.70e7	4.47e7		1.29e7	2.18e7	inactive
CG3847	DRSC18327	3.71e7	3.69e7		2.32e7	2.10e7	inactive
Prx6c	DRSC06080	4.38e7	4.42e7		1.95e7	1.96e7	inactive

The listing continues:
gene	DRSC id	calcium entry signal, replicate 1 (fluorescence units)	calcium entry signal, replicate 2 (fluorescence units)	entry to resting ratio	resting calcium signal, replicate 1 (fluorescence units)	resting calcium signal, replicate 2 (fluorescence units)	outcome
Eip63E	DRSC08658	4.30e7	3.33e7		2.66e7	1.49e7	inactive
sgl	DRSC21431	4.57e7	3.29e7		2.64e7	1.59e7	inactive
Tsp42Ec	DRSC06192	3.13e7	2.82e7		1.40e7	1.28e7	inactive
CG1648	DRSC06610	3.09e7	4.38e7		1.37e7	2.10e7	inactive
CG8586	DRSC07218	4.61e7	4.35e7		1.91e7	1.92e7	inactive
ZnT63C	DRSC08032	2.95e7	3.68e7		1.35e7	1.77e7	inactive
ZnT63C	DRSC08033	2.75e7	3.98e7		1.35e7	1.80e7	inactive
ZnT63C	DRSC08519	3.44e7	2.60e7		2.46e7	1.22e7	inactive
ZnT63C	DRSC21989	2.22e7	3.53e7		1.17e7	1.78e7	inactive
phtf	DRSC05023	3.61e7			1.63e7		inactive
PGRP-LB	DRSC14926	1.83e7	1.91e7		1.08e7	1.02e7	inactive
GCS2alpha	DRSC21036	5.47e7	3.75e7		2.71e7	1.87e7	inactive
Nhe1	DRSC00762	3.66e7			1.64e7		inactive
CG4009	DRSC15536	3.32e7	5.50e7		1.60e7	5.30e7	inactive
CG8093	DRSC07078	3.49e7	3.48e7		1.83e7	1.70e7	inactive
CtsK1	DRSC08742	5.26e7	4.74e7		2.16e7	2.00e7	inactive
CG4615	DRSC17491	3.31e7	2.44e7		1.56e7	1.11e7	inactive
CG4615	DRSC18376	2.39e7	2.42e7		1.34e7	1.36e7	inactive
Diedel2	DRSC13952	3.47e7	3.92e7		1.76e7	2.07e7	inactive
wda	DRSC15579	4.46e7	3.75e7		2.34e7	1.86e7	inactive
wda	DRSC22351	3.23e7	6.74e7		1.80e7	2.96e7	inactive
CG13312	DRSC09983	3.23e7	5.14e7		1.55e7	2.20e7	inactive
Grl43a	DRSC06383	4.70e7	3.35e7		2.05e7	1.66e7	inactive
CG13022	DRSC09902	3.20e7	5.91e7		1.65e7	2.51e7	inactive
CG5853	DRSC01103	4.17e7	3.95e7		2.12e7	1.84e7	inactive
CG5853	DRSC02906	6.13e7			2.72e7		inactive
Nrx-1	DRSC16184	4.83e7	2.87e7		2.45e7	1.50e7	inactive
phr6-4	DRSC03589	3.84e7	4.58e7		1.53e7	1.73e7	inactive
CR12628 + Mgstl	DRSC03702	3.99e7	4.60e7		2.08e7	2.23e7	inactive
CR12628 + Mgstl	DRSC20568	5.25e7	4.92e7		2.63e7	1.89e7	inactive
CG2975	DRSC00556	3.19e7	3.69e7		1.77e7	1.64e7	inactive
CG4880	DRSC19923	2.88e7	2.90e7		1.50e7	1.38e7	inactive
